Laboratory results reported in publication PMC4609182.
No constants are given. Whether binding was seen depends on the method and setting.

Molecular target: T1, Full-length Parkin, unmodified (rat), Q9JK66
T1 chain: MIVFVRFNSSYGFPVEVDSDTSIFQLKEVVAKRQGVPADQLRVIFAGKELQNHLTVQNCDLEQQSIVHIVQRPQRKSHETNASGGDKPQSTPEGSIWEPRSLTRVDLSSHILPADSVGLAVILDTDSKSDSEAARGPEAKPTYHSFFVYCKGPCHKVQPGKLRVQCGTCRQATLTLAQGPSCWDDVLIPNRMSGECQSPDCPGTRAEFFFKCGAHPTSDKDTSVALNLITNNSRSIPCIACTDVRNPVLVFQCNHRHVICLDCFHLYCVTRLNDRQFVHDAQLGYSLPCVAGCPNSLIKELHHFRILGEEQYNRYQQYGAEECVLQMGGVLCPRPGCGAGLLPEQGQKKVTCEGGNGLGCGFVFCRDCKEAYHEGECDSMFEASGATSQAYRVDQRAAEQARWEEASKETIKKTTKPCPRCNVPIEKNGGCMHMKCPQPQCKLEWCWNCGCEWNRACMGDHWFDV
Assay: SAXS; full-length Parkin at 1.5, 3 and 6 mg/ml; 20°C; 50 mM Tris–HCl pH 8.0, 150 mM NaCl, 2% glycerol, 10 mM DTT; mass estimate; both purified
Conditions: remark: other sources report otherwise

binding: no binding
B1: Full-length Parkin, unmodified, Q9JK66 1-465 (enzyme)
chain: MIVFVRFNSSYGFPVEVDSDTSIFQLKEVVAKRQGVPADQLRVIFAGKELQNHLTVQNCDLEQQSIVHIVQRPQRKSHETNASGGDKPQSTPEGSIWEPRSLTRVDLSSHILPADSVGLAVILDTDSKSDSEAARGPEAKPTYHSFFVYCKGPCHKVQPGKLRVQCGTCRQATLTLAQGPSCWDDVLIPNRMSGECQSPDCPGTRAEFFFKCGAHPTSDKDTSVALNLITNNSRSIPCIACTDVRNPVLVFQCNHRHVICLDCFHLYCVTRLNDRQFVHDAQLGYSLPCVAGCPNSLIKELHHFRILGEEQYNRYQQYGAEECVLQMGGVLCPRPGCGAGLLPEQGQKKVTCEGGNGLGCGFVFCRDCKEAYHEGECDSMFEASGATSQAYRVDQRAAEQARWEEASKETIKKTTKPCPRCNVPIEKNGGCMHMKCPQPQCKLEWCWNCGCEWNRACMGDHWFDV
